Measured values taken from PMC1526750.
These are yes or no findings as the source states them, for the method shown. Binding seen in cells or lysates may run through a third protein. Some binding calls cover weakened binding; strength is not graded here. For some of these results: Sequences can lack the tags named with a protein.

T1: Gal4DBD-BCL11A-S, in vitro translated, unlabeled (human) (UniProt Q9H165)
T1 sequence: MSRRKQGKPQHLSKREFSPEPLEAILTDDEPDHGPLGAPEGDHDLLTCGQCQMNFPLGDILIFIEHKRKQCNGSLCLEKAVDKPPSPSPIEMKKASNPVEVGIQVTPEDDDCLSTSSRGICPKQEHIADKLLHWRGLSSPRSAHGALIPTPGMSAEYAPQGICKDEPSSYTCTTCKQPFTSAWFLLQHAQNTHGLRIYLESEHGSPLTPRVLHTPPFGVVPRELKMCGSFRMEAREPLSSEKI


Key:
[1] = molecular target: BCL11A-XL in the co-immunoprecipitation with nonO (data not shown) (human) (UniProt Q9H165); assay: co-IP; data not shown; no details given
[2] = molecular target: Gal4DBD-BCL11A-L, in vitro translated, unlabeled (human) (UniProt Q9H165); assay: co-IP; in vitro translated unlabeled Gal4DBD-BCL11A isoforms and 35S-labeled HA-BCL11A isoforms; anti-Gal4-DBD antibody, IP buffer (50 mM Tris-Cl pH 7.5, 150 mM NaCl, 5 mM MgCl2, 1 mM EDTA, 0.25% NP-40, 1 mM DTT), 1 hr at 4°C, protein A agarose
[3] = molecular target: T1, Gal4DBD-BCL11A-S, in vitro translated, unlabeled (human); assay: as above
[4] = molecular target: Gal4DBD-BCL11A-XL, in vitro translated, unlabeled (human) (UniProt Q9H165); assay: as above

Row | binding [1] | binding [2] | binding [3] | binding [4] | Binder
1 | binds |  |  |  | nonO/p54nrb (protein, UniProt Q15233 1-471) MQSNKTFNLEKQNHTPRKHHQHHHQQQHHQQQQQQPPPPPIPANGQQASSQNEGLTIDLKNFRKPGEKTFTQRSRLFVGNLPPDITEEEMRKLFEKYGKAGEVFIHKDKGFGFIRLETRTLAEIAKVELDNMPLRGKQLRVRFACHSASLTVRNLPQYVSNELLEEAFSVFGQVERAVVIVDDRGRPSGKGIVEFSGKPAARKALDRCSEGSFLLTTFPRPVTVEPMDQLDDEEGLPEKLVIKNQQFHKEREQPPRFAQPGSFEYEYAMRWKALIEMEKQQQDQVDRNIKEAREKLEMEMEAARHEHQVMLMRQDLMRRQEELRRMEELHNQEVQKRKQLELRQEEERRRREEEMRRQQEEMMRRQQEGFKGTFPDAREQEIRMGQMAMGGAMGINNRGAMPPAPVPAGTPAPPGPATMMPDGTLGLTPPTTERFGQAATMEGIGAIGGTPPAFNRAAPGAEFAPNKRRRY
2 |  | binds | binds | binds | HA-BCL11A-S, in vitro translated, 35S-labeled (protein, UniProt Q9H165-3 1-243, 35S-labeled) MSRRKQGKPQHLSKREFSPEPLEAILTDDEPDHGPLGAPEGDHDLLTCGQCQMNFPLGDILIFIEHKRKQCNGSLCLEKAVDKPPSPSPIEMKKASNPVEVGIQVTPEDDDCLSTSSRGICPKQEHIADKLLHWRGLSSPRSAHGALIPTPGMSAEYAPQGICKDEPSSYTCTTCKQPFTSAWFLLQHAQNTHGLRIYLESEHGSPLTPRVLHTPPFGVVPRELKMCGSFRMEAREPLSSEKI
